Assay: HPLC-analysis of extracted lard without heating (comparison test)
Parameters: species or system pig
Conditions: for Detection of skatole or indole: extraction without prior heating

SMILES	Concentration of skatole in extract from lard (extracted lard without heating, samples 1-5)	Detection of skatole or indole
Cc1c[nH]c2ccccc12 [Skatole, skatole]	0 ppb	not possible to detect
c1ccc2[nH]ccc2c1 [Indole, indole]		not possible to detect
